Reference: paper PMC5765474
Results are given in words; binding and its absence hold for the method and conditions named. Binding seen in cells or lysates may run through a third protein. Some entries that bind do so weakly or less than the wild type.

Protein sequences, listed by entry. Tags and fused reporters are not part of them.
UniProt P51807: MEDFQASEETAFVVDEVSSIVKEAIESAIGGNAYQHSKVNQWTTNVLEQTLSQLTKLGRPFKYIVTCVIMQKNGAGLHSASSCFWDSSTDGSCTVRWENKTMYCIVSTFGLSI

Target: MAP6d1 protein (rat)
Experiment: co-IP; MAP6d1 immunoprecipitated, Tctex1 detected (Fig. S2); cells and constructs not shown

binding: binds
Substance: Tctex1 as used in the MAP6d1 immunoprecipitation (Fig. S2) (from UniProt P51807 1-113)
